# Assay results

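Vaccinia-infected cells with a two-color viral stage reporter; Venus fluorescence read on a plate reader; the cell line is not named here; timing not stated here.
The test concentration is not given here.
Percent change in Venus reporter signal; lower (more negative) values mean stronger inhibition of that viral stage.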

Values are in %.
The controls that fix the scale are not given here.
Common to all entries: measured here: Venus reporter, other viral stage.
Part of the compounds only, not a random draw; the main read-out is not listed here.

Compound	activity change (Venus) (%)
O=C(Nc1ccc(F)cc1)N1CC(=O)N2[C@H](C1)[C@H](c1ccc(-c3cccc(F)c3)cc1)[C@@H]2CO	-32.24
C[C@@H]1CN([C@@H](C)CO)C(=O)c2cc(NC(=O)Cc3ccccc3)ccc2O[C@@H](C)CCCCO[C@H]1CN(C)CC1CCCCC1	-47.14
CC(C)C#Cc1ccc([C@@H]2[C@@H](CO)N3CCCCN(C(=O)c4ccc5c(c4)OCO5)C[C@@H]23)cc1	-24.2
C[C@H]1CN([C@@H](C)CO)S(=O)(=O)c2ccc(C#CC3(O)CCCC3)cc2O[C@H]1CN(C)C(=O)Nc1cccc(F)c1	-36.02
C[C@@H]1CCCCO[C@@H](CN(C)Cc2ccc3c(c2)OCO3)[C@@H](C)CN([C@@H](C)CO)C(=O)c2cc(NC(=O)Nc3ccc4c(c3)OCO4)ccc2O1	-37.11
C[C@@H]1CN([C@H](C)CO)C(=O)Cc2cc(NC(=O)CCCCCC(=O)Nc3ccccc3N)ccc2O[C@H]1CN(C)CC1CCCCC1	-27.18
C[C@H](CO)N1C[C@H](C)[C@@H](CN(C)CC2CCCCC2)OCCCC[C@H](C)Oc2ccc(NS(=O)(=O)c3ccc(F)cc3)cc2C1=O	-48.56
C[C@@H]1CN([C@@H](C)CO)C(=O)Cc2cc(NC(=O)NC3CCCCC3)ccc2O[C@H]1CN(C)Cc1ccccc1	-35.87
C[C@@H]1CN([C@H](C)CO)C(=O)c2cc(NC(=O)Nc3ccc(C(F)(F)F)cc3)ccc2O[C@@H]1CN(C)Cc1ccc(C(F)(F)F)cc1	-56.87
COc1ccc(NC(=O)Nc2ccc3c(c2)C(=O)N([C@H](C)CO)C[C@@H](C)[C@@H](CN(C)Cc2ccc4c(c2)OCO4)OCCCC[C@H](C)O3)cc1	-40.83
COC(=O)[C@H]1[C@H](CO)[C@H]2Cn3c(ccc(C4=CCCCC4)c3=O)[C@@H]1N2CC1CCCCC1	-26.46
O=C(C[C@H]1CC[C@H]2[C@@H](COC[C@H](O)CN2Cc2nccs2)O1)NCc1ccc(Oc2ccccc2)cc1	-50.63
COc1ccc(NC(=O)Nc2ccc3c(c2)C(=O)N([C@H](C)CO)C[C@@H](C)[C@@H](CN(C)Cc2ccc4c(c2)OCO4)OCCCC[C@@H](C)O3)cc1	-47.82
CN1c2ccc(-c3ccccc3)cc2[C@H]2[C@H](CCN2C(=O)c2ccccc2)[C@H]1CO	-44.42
COc1ccccc1NC(=O)Nc1ccc2c(c1)OC[C@H](C)NC[C@H](C)[C@@H](OC)CN(C)C2=O	-44.84
COc1ccc(S(=O)(=O)Nc2ccc3c(c2)C(=O)N([C@@H](C)CO)C[C@@H](C)[C@@H](CN(C)C(=O)C2CCCCC2)OCCCC[C@H](C)O3)cc1	-35.04
C[C@H](CO)N1C[C@H](C)[C@H](CN(C)Cc2ccncc2)OCCCC[C@H](C)Oc2ccc(NS(=O)(=O)c3ccc(Cl)cc3)cc2C1=O	-44.41
C[C@@H]1CN([C@H](C)CO)C(=O)c2cc(NC(=O)CCC(F)(F)F)ccc2O[C@@H](C)CCCCO[C@H]1CN(C)S(=O)(=O)c1ccc(F)cc1	-21.34
O=C(Nc1cc(Cl)cc(Cl)c1)N[C@@H]1CC[C@H](CCNS(=O)(=O)c2cccc(F)c2)O[C@H]1CO	-25.74
CC(C)NC(=O)N(C)C[C@H]1Oc2cc(C#Cc3cccc(F)c3)ccc2S(=O)(=O)N([C@@H](C)CO)C[C@@H]1C	-54.65
C[C@H]1CN([C@@H](C)CO)S(=O)(=O)c2ccc(C#CC3CC3)cc2O[C@@H]1CN(C)Cc1ccncc1	-82.61
O=C(C[C@H]1CC[C@@H]2[C@H](COC[C@H](O)CN2Cc2nccs2)O1)NCc1ccc(Oc2ccccc2)cc1	-30.42
COc1ccc(S(=O)(=O)N(C)C[C@H]2Oc3cc(-c4cccc(F)c4)ccc3S(=O)(=O)N([C@H](C)CO)C[C@H]2C)cc1	-27.1
CO[C@@H](CN(C)S(=O)(=O)c1ccc(C)cc1)[C@H](C)CN(Cc1ccccc1Cl)[C@H](C)CO	-30.61
C[C@@H]1CCCCO[C@@H](CN(C)C(=O)CCC(F)(F)F)[C@@H](C)CN([C@@H](C)CO)C(=O)c2cc(NS(=O)(=O)c3ccc(F)cc3)ccc2O1	-25.46
CCCC#Cc1ccc([C@H]2[C@@H](CO)N3CCCCN(C(=O)NC4CCCC4)C[C@H]23)cc1	-36.67
C[C@@H]1CN([C@@H](C)CO)C(=O)Cc2cc(NC(=O)Cc3ccccc3)ccc2O[C@@H]1CN(C)Cc1ccc(Oc2ccccc2)cc1	-58.49
C[C@@H]1CCCCO[C@@H](CN(C)Cc2ccc(C(F)(F)F)cc2)[C@H](C)CN([C@H](C)CO)C(=O)c2cc(NC(=O)CCCN(C)C)ccc2O1	-70.6
C[C@H]1CCCCO[C@@H](CN(C)Cc2ccccc2)[C@@H](C)CN([C@@H](C)CO)C(=O)c2cc(NC(=O)Nc3ccccc3)ccc2O1	-59.68
Cc1cccc(-c2ccc(C3[C@@H]4CN(C(=O)C5CCC5)C[C@H]3N4)cc2)c1 (some centres not stated)	-73.12
COc1ccc(S(=O)(=O)N(C)C[C@@H]2OCc3ccccc3-c3c(n(C)c4ccccc34)C(=O)N([C@@H](C)CO)C[C@@H]2C)cc1	-51.83
COc1ccccc1C#Cc1ccc([C@H]2[C@H](CO)N3CCCCN(CCC(F)(F)F)C[C@@H]23)cc1	-27.42
C[C@H]1CN([C@@H](C)CO)S(=O)(=O)c2ccc(C#CCN(C)C)cc2O[C@@H]1CN(C)Cc1ccccc1	-42.03
O=C(C[C@@H]1CC[C@@H]2[C@H](COC[C@H](O)CN2Cc2cccc(C(F)(F)F)c2)O1)NCc1ccccc1	-30.2
C[C@H]1CN([C@@H](C)CO)S(=O)(=O)c2ccc(C#Cc3ccccc3)cc2O[C@H]1CN(C)C	-50.12
C[C@@H]1CN([C@@H](C)CO)S(=O)(=O)c2ccc(C#CC3CC3)cc2O[C@H]1CN(C)Cc1cccc(F)c1	-74.25
O=C(C[C@@H]1C[C@@H]2c3cc(NS(=O)(=O)c4ccc(F)cc4)ccc3O[C@@H]2[C@H](CO)O1)NCc1ccc(-c2ccccc2)cc1	-26.91
C[C@@H]1CCCCO[C@H](CN(C)C(=O)CCC(F)(F)F)[C@H](C)CN([C@H](C)CO)C(=O)c2cc(NS(=O)(=O)c3ccc(Cl)cc3)ccc2O1	-39.11
COc1ccc(CN(C)C[C@H]2OCCCC[C@@H](C)Oc3ccc(NS(=O)(=O)c4cccs4)cc3C(=O)N([C@H](C)CO)C[C@H]2C)cc1	-44.58
COc1ccc(S(=O)(=O)Nc2ccc3c(c2)CC(=O)N([C@H](C)CO)C[C@@H](C)[C@@H](CN(C)Cc2ccc(C(F)(F)F)cc2)O3)cc1	-56.84
O=C(c1ccccc1F)N1CC(=O)N2[C@H](CO)[C@H](c3ccc(C#Cc4ccccc4)cc3)[C@H]2C1	-81.51

Source: PubChem BioAssay AID1053133 (Broad Institute, 2014).